Measurements taken from US20030129193A1 (priority 2001, published 2003).
No constants are given. Whether binding was seen depends on the method and setting.

Target: T1, recombinant, depyrogenated truncated Tissue Factor (amino acids 1-219), secreted into the periplasm of E. coli from vector pswc7 (human), P13726
T1 chain: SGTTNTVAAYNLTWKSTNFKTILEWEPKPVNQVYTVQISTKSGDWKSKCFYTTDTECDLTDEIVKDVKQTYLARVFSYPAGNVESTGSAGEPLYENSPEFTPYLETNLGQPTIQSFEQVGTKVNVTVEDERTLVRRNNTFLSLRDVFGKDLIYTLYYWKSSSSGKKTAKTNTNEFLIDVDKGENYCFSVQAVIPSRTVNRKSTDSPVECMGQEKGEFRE
Assay: SPR (Biacore), CM5 chip; tTF immobilised by amine coupling (700 RU) or captured by anti-TF antibody (300 RU); tTF injected alone or after preincubation with LPS 10 µg/ml
Settings: remark: other sources report otherwise

B1: recombinant, depyrogenated truncated Tissue Factor (amino acids 1-219), secreted into the periplasm of E. coli from vector pswc7, P13726 33-251 (receptor, human, UniProt P13726 33-251, looked up)
chain: T1 chain
- binding: no binding (tested: 30 pg/ml (so in the source))
